Reference: publication PMC3376741
No constants are given. Whether binding was seen depends on the method and setting. In cells and extracts the contact can be indirect.

Molecular target: GST::Borealin fragment of the central region that also contained the dimerization domain (human)
Test: pull-down; GST-tagged protein purified from bacteria on glutathione sepharose beads; partner translated in vitro and [35S] methionine-labelled; NET-N+ buffer (50 mM Tris-HCl pH 7.4, 150 mM NaCl, 5 mM EDTA, 0.5% NP-40), in ice 30 min; five washes; exposed to X-ray film; only the target purified

binding: no binding
B1: CHMP4C translated and radio-labelled in vitro (protein, UniProt Q96CF2 1-233)
chain: MSKLGKFFKGGGSSKSRAAPSPQEALVRLRETEEMLGKKQEYLENRIQREIALAKKHGTQNKRAALQALKRKKRFEKQLTQIDGTLSTIEFQREALENSHTNTEVLRNMGFAAKAMKSVHENMDLNKIDDLMQEITEQQDIAQEISEAFSQRVGFGDDFDEDELMAELEELEQEELNKKMTNIRLPNVPSSSLPAQPNRKPGMSSTARRSRAASSQRAEEEDDDIKQLAAWAT
modifications: [35S] methionine-labelled
